Patent publication US6495491B1, “Substituted cyanophenyl uracils” (Bayer Aktiengesellschaft, priority 1995, dated 2002)
Some entries share one result that the patent states for a list of compounds.

Tests used:
Assay type in all cases: in vivo
Digitaria = assay: Pre-emergence test, Digitaria; conditions: application rates between 8 and 125 g/ha, after three weeks
Setaria [1] = assay: Pre-emergence test, Setaria; conditions: application rates between 8 and 125 g/ha, after three weeks
Panicum = assay: Post-emergence test, Panicum; conditions: application rates between 30 and 500 g/ha, after three weeks
Setaria [2] = assay: Post-emergence test, Setaria; conditions: application rates between 30 and 500 g/ha, after three weeks
Sorghum = assay: Post-emergence test, Sorghum; conditions: application rates between 30 and 500 g/ha, after three weeks

## COc1cc(-n2c(=O)cc(C(F)(F)F)n(C)c2=O)c(F)cc1C#N [Example 2, 1-(4-cyano-2-fluoro-5-methoxy-phenyl)-3,6-dihydro-2,6-dioxo-3-methyl-4-trifluoromethyl-1(2H)-pyrimidine]
Digitaria
  degree of damage to the plants, % damage: 90-100%
Setaria [1]
  degree of damage to the plants, % damage: 95-100%
Panicum
  degree of damage to the plants, % damage: 95-100%
Setaria [2]
  degree of damage to the plants, % damage: 90-100%
Sorghum
  degree of damage to the plants, % damage: 80-95%
